Data reported in patent US10983109B2, “Compositions and methods for treating B-lymphoid malignancies” (The Children's Hospital of Philadelphia, priority 2013, dated 2021).
For at least one compound, name, drawing or mass did not settle the structure.

By UniProt entry, the sequences of proteins in these tests, tags left out. Where a name states a change or a piece, a line headed by the entry shows the natural chain unless it says otherwise.
UniProt P07948: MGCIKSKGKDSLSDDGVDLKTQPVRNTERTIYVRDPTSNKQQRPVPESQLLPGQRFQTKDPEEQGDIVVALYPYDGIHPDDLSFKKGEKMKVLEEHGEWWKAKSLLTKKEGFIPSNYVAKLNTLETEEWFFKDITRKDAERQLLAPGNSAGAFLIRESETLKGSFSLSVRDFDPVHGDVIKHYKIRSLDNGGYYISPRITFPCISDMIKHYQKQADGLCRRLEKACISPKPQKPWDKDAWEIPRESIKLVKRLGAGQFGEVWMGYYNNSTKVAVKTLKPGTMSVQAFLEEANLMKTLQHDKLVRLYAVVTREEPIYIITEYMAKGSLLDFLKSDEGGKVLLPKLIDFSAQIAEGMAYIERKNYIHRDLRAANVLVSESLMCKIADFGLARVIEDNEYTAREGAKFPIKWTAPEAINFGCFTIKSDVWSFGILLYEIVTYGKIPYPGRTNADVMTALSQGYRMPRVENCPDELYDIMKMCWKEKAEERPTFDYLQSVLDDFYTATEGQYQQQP

Experiments:
B-ALL cells [1] = experiment: WST assay monitoring B-ALL cell growth; type: cell-based, human
B-ALL cells [2] = experiment: Cell cycle analysis of B-ALL cells 48 hours post treatment; type: cell-based, human; conditions: commensurate depletion of S and G2/M phases
Lyn = target: T1, Lyn (Homo sapiens, UniProt P07948); experiment: Western blot of Lyn phosphorylation in B-ALL cells treated with Dasatinib; type: cell-based; conditions: lysates 0.5-4.0 hour post treatment
T1 construct: endogenous in cells

[3] = test system: c-Myc transcription from the tetO7-TP promoter in P493-6; experiment: Western blotting of P493-6 cells treated with doxycycline; type: cell-based, human
PI3K [4] = experiment: Immunoblotting of splenic B-cells treated with PI3K inhibitor; type: cell-based, mouse; conditions: short-term cultures, 0.5 hour
PI3K [5] = experiment: Immunoblotting of P493-6 cells treated with PI3K inhibitor; type: cell-based, human; conditions: 10 μM, 1 hour, immunoblot

## Cc1nc(Nc2ncc(C(=O)Nc3c(C)cccc3Cl)s2)cc(N2CCN(CCO)CC2)n1 [Dasatinib]
B-ALL cells [1]
  growth of B-ALL cells (WST assay): impairs the growth
B-ALL cells [2]
  cell cycle distribution: arrests the cell cycle at the G1 phase
Lyn
  Lyn phosphorylation: effective in inhibiting

## C[C@H]1c2cccc(O)c2C(=O)C2=C(O)[C@]3(O)C(=O)C(C(N)=O)=C(O)[C@@H](N(C)C)[C@@H]3[C@@H](O)[C@@H]21 [Dox, doxycycline]
[3]; 2 hours after Dox
  Myc protein levels: decreased sharply
[3]; Dox 2-12 hours
  Pax5 levels: no appreciable changes
[3]; prolonged exposure to Dox (24-48 hours)
  Pax5 expression levels: unaffected

## O=c1cc(N2CCOCC2)oc2c(-c3ccccc3)cccc12 [LY294002]
PI3K [4]
  Myc levels: sharply down-regulated
  pAkt levels: very low
  pGSK3β levels: very low
PI3K [5]
  pAkt levels: decreased
  pGSK3β levels: decreased
PI3K [5]; reduction called relatively modest
  Myc levels: decreased Myc levels
